At least one structure is not confirmed: it was looked up by name or label, or the drawing left a doubt.
Key:
MLCK = target: T1, MLCK (Gallus gallus, UniProt P11799); assay: In vitro phosphorylation of LC20 by MLCK in the presence of wortmannin; type: biochemical, chicken; conditions: FIG. 2C
T1 construct: purified from chicken gizzard; from tissue; host or cells: chicken gizzard

Sequences of proteins named here, by UniProt entry; tags and fusion partners are left off. Residues count along the entry.
UniProt Q61036, 1-544 isoform Q61036-2: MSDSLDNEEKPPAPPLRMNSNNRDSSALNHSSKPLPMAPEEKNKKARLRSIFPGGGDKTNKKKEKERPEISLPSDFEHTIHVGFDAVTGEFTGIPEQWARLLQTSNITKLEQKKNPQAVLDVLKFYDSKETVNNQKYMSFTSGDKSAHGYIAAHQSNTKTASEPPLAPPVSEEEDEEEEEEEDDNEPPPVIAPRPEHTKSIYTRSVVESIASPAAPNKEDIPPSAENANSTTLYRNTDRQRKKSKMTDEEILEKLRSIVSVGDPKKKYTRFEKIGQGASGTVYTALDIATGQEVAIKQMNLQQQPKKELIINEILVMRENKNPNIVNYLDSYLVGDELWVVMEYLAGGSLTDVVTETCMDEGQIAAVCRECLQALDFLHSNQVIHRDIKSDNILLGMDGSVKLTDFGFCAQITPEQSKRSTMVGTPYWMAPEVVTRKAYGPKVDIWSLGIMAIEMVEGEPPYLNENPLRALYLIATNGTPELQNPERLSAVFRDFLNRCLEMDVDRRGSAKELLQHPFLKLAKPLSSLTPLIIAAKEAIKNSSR

GST-mPAK3 = target: T2, GST-mPAK3 (Mus musculus, UniProt Q61036); assay: In vitro phosphorylation of LC20 by GST-mPAK3 in the presence of wortmannin; type: biochemical; conditions: FIG. 2C
T2 construct: made in house; host or cells: E. coli

## COC[C@H]1OC(=O)c2coc3c2[C@@]1(C)C1=C(C3=O)[C@@H]2CCC(=O)[C@@]2(C)C[C@H]1OC(C)=O [wortmannin]
MLCK
  inhibition of MLCK (LC20 phosphorylation): potent inhibitor
GST-mPAK3
  effect on activity of PAK (LC20 phosphorylation by GST-mPAK3): does not affect the activity

Source: patent publication US20020045564A1, “Methods of modulating muscle contraction” (priority 1997, published 2002)
